Assay [1] has as its target T1, MBP-14-3-3 (amino acids 1-247), full length 14-3-3 gamma (human) (UniProt P61981).
T1 sequence: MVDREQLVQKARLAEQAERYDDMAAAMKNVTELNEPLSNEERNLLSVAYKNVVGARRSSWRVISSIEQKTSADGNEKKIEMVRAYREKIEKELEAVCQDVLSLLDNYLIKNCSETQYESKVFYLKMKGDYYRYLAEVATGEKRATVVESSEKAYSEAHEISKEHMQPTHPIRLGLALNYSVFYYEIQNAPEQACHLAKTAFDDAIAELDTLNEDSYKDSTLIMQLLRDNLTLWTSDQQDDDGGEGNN
Kind of assay: pull-down; MBP-14-3-3 bound to amylose resin incubated with lysates of HEK 293 cells transfected with myc-CFL2 (50 mM Tris-HCl pH 8.0, 150 mM NaCl, 1% NP-40), in the presence of phosphorylated or non-phosphorylated eluted GST-Hsp20 (WT, S16A, S16D or P20L); blot with myc antibody; only the target purified.

The target of assay [2] is T1, MBP-14-3-3 (amino acids 1-247), full length 14-3-3 gamma (human). Nature of the assay: pull-down; MBP-14-3-3 bound to amylose resin mixed with 0.5 mg mouse cardiac homogenate (10 mM NaPO4 pH 7.2, 2 mM EDTA, 120 mM NaCl, 1% NP-40), 4 °C, 16 h; Western blot; only the target purified. A general note: Immunoblotting shows a protein as a band on a membrane.
For assay [3], the target named is T2, GST-CFL2 (amino acids 1-55) (UniProt Q9Y281).
T2 sequence: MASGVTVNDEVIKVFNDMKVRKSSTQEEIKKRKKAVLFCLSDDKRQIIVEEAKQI
Nature of the assay: far-Western, overlay or dot blot; purified GST fusion proteins separated by SDS-PAGE and transferred to nitrocellulose; membranes incubated with MBP-14-3-3 fusion protein (or MBP as control); detection with anti-MBP; both purified.

Assay [4] addresses GST-CFL2 (amino acids 1-166), non-phosphorylated (UniProt Q9Y281). The description is as above.

Data on five molecules can be found in PMC7765622, “The Cardioprotective PKA-Mediated Hsp20 Phosphorylation Modulates Protein Associations Regulating Cytoskeletal Dynamics” (International Journal of Molecular Sciences, 2020).

Results are given in words; binding and its absence hold for the method and conditions named. For part of these data: In cells and extracts the contact can be indirect. Some results given as binding are weak or reduced against the parent protein; the word gives no strength. Tags and fused reporters may be left off the sequences shown.

As for “myc-CFL2, full length (from UniProt Q9Y281 1-166)”, in assay [1], the binding entry was “binds”.

Turning to “cofilin-2 (CFL2), endogenous in mouse cardiac muscle (from UniProt P45591 1-166)”, in assay [2], the binding entry is recorded as “binds”.

B1: MBP-14-3-3 (amino acids 1-247), full length 14-3-3 gamma (protein)
chain: MVDREQLVQKARLAEQAERYDDMAAAMKNVTELNEPLSNEERNLLSVAYKNVVGARRSSWRVISSIEQKTSADGNEKKIEMVRAYREKIEKELEAVCQDVLSLLDNYLIKNCSETQYESKVFYLKMKGDYYRYLAEVATGEKRATVVESSEKAYSEAHEISKEHMQPTHPIRLGLALNYSVFYYEIQNAPEQACHLAKTAFDDAIAELDTLNEDSYKDSTLIMQLLRDNLTLWTSDQQDDDGGEGNN
As for B1, the binding result in assay [3] and in assay [4] was “binds” each time.

B2: MBP-14-3-3 (amino acids 1-120) (protein)
chain: MVDREQLVQKARLAEQAERYDDMAAAMKNVTELNEPLSNEERNLLSVAYKNVVGARRSSWRVISSIEQKTSADGNEKKIEMVRAYREKIEKELEAVCQDVLSLLDNYLIKNCSETQYESK
Regarding B2, in assay [4], the binding entry is listed as “binds”.

B3: Hsp20 (small heat shock protein 20), endogenous in mouse cardiac muscle (protein, UniProt Q5EBG6 1-162)
chain: MEIPVPVQPSWLRRASAPLPGFSAPGRLFDQRFGEGLLEAELASLCPAAIAPYYLRAPSVALPTAQVSTDSGYFSVLLDVKHFLPEEISVKVVDDHVEVHARHEERPDEHGFIAREFHRRYRLPPGVDPAAVTSALSPEGVLSIQATPASAQAQLPSPPAAK
With B3, the binding result in assay [2] was “binds”.
